Results published in patent EP0760376A1 (Kyowa Hakko Kogyo Co., Ltd., priority 1995, dated 1996).

Assay: general procedure: Fmoc solid-phase peptide synthesis; Rink amide-resin or Rink amide-MBHA-resin (Shimadzu synthesizer); p-methyl-BHA-resin (ABI synthesizer); PyBOP/HOBt/NMM
Settings: whole synthesis, scale 50 mg resin

| Substance | crude mass [mg] | isolated mass [mg] |
| --- | --- | --- |
| C3H7CO-Leu-Tyr-Arg-Lys-Met-Arg-Leu-Arg-Tyr-Pro-Val-NH-(CH2)11CONH2 | 35.3 | 26.4 |
| C17H35CO-Leu-Tyr-Arg-Lys-Met-Arg-Leu-Arg-Tyr-Pro-Val-NH-(CH2)11CONH2 | 45.8 | 30.8 |
| CH3CO-Leu-Tyr-Arg-Lys-Met-Arg-Leu-Arg-Tyr-Pro-Val-NH-(CH2)4CONH2 | 36.5 | 6.3 |
| CH3CO-Leu-Tyr-Arg-Lys-Met-Arg-Leu-Arg-Tyr-Pro-Val-NH-(CH2)5CONH2 | 40.0 | 13.9 |
| CH3CO-Leu-Tyr-Arg-Lys-Met-Arg-Leu-Arg-Tyr-Pro-Val-NH-(CH2)6CONH2 | 20.0 | 5.0 |
| CH3CO-Leu-Tyr-Arg-Lys-Met-Arg-Leu-Arg-Tyr-Pro-Val-NH-(CH2)7CONH2 | 37.8 | 10.3 |
| CH3CO-Leu-Tyr-Arg-Lys-Met-Arg-Leu-Arg-Tyr-Pro-Val-NH-(CH2)10CONH2 | 43.1 | 13.1 |
| CH3CO-Leu-Tyr-Arg-Lys-Met-Arg-Leu-Arg-Tyr-Pro-Val-NH-(CH2)11CONH2 | 22.3 | 3.9 |

Same assay, conditions: whole synthesis, scale 60 mg resin

| Substance | isolated mass [mg] |
| --- | --- |
| CH3CO-Leu-Tyr-Arg-Lys-Met-Arg-Leu-Arg-Tyr-Pro-Val-NH-(CH2)3CONH2 | 9.5 |
